Measurements published in publication PMC10746174.

Sequences of proteins named here, by UniProt entry; tags and fusion partners are left off. A change or cut given only in a name is not applied to a line headed by its entry.
UniProt P33927: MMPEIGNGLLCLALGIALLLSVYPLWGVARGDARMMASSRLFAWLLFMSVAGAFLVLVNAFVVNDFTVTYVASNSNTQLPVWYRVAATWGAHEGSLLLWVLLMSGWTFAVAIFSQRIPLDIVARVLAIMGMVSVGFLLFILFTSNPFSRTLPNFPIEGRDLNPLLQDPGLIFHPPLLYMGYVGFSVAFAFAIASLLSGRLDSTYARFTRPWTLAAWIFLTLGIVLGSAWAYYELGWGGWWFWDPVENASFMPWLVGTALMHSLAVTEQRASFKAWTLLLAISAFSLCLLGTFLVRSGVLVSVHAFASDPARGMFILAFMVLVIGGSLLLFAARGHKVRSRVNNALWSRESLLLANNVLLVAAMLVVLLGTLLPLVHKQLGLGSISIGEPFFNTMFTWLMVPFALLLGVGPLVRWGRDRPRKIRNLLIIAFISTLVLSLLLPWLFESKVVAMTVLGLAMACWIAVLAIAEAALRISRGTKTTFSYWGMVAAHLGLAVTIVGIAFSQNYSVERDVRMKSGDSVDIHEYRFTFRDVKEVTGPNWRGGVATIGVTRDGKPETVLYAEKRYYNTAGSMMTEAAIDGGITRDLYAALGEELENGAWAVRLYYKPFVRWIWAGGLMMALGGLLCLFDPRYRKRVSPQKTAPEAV

Tests used:
Assay in all cases: pull-down; CcmF:6×His (C-terminal tag) co-expressed with the complete System I pathway in E. coli Δccm (RK103) and affinity purified; 5 µg of purified protein separated by SDS-PAGE; immunoblots with α-CcmH and α-CcmE, heme stain for holoCcmE
[1] = target: CcmF:6×His G238C (E. coli) (UniProt P33927)
[2] = target: CcmF:6×His A248C (E. coli) (UniProt P33927)
[3] = target: CcmF:6×His N247A (E. coli) (UniProt P33927)
[4] = target: CcmF:6×His D243A (E. coli) (UniProt P33927)
[5] = target: CcmF:6×His F241A (E. coli) (UniProt P33927)
[6] = target: CcmF:6×His Y231A (E. coli) (UniProt P33927)
[7] = target: CcmF:6×His E246C (E. coli) (UniProt P33927)
[8] = target: CcmF:6×His W242A (E. coli) (UniProt P33927)
[9] = target: CcmF:6×His W242C (E. coli) (UniProt P33927)
[10] = target: CcmF:6×His W229A (E. coli) (UniProt P33927)
[11] = target: CcmF:6×His V245A (E. coli) (UniProt P33927)
[12] = target: CcmF:6×His E246A (E. coli) (UniProt P33927)
[13] = target: CcmF:6×His P244A (E. coli) (UniProt P33927)
[14] = target: CcmF:6×His L234A (E. coli) (UniProt P33927)
[15] = target: CcmF:6×His Y232C (E. coli) (UniProt P33927)
[16] = target: CcmF:6×His G237C (E. coli) (UniProt P33927)
[17] = target: CcmF:6×His N247C (E. coli) (UniProt P33927)
[18] = target: CcmF:6×His G238A (E. coli) (UniProt P33927)

Measured: binding

B1: CcmH (protein, UniProt P0ABM9 19-350)
chain: TIDVLQFKDEAQEQQFRQLTEELRCPKCQNNSIADSNSMIATDLRQKVYELMQEGKSKKEIVDYMVARYGNFVTYDPPLTPLTVLLWVLPVVAIGIGGWVIYARSRRRVRVVPEAFPEQSVPEGKRAGYVVYLPGIVVALIVAGVSYYQTGNYQQVKIWQQATAQAPALLDRALDPKADPLNEEEMSRLALGMRTQLQKNPGDIEGWIMLGRVGMALGNASIATDAYATAYRLDPKNSDAALGYAEALTRSSDPNDNRLGGELLRQLVRTDHSNIRVLSMYAFNAFEQQRFGEAVAAWEMMLKLLPANDTRRAVIERSIAQAMQHLSPQESK
binds: all assays above

Results are given in words; binding and its absence hold for the method and conditions named. Binding seen in cells or lysates may run through a third protein. Binding can be weak; no strength is given.
